Where two headings read alike, the source gives them in different places. No constants are given. Whether binding was seen depends on the method and setting. Binding seen in cells or lysates may run through a third protein. These calls come from enrichment with a bait or labelling near it, and not all partners need be listed. For some assays here: No binding means not detected with the bait.
Legend:
Experiment in all cases: proximity labelling; TurboID on the C-terminus of IRE1α or IRE1β in HMC-1.2 IRE1α−/− cells; DMSO or tunicamycin 2 h, then 500 µM biotin 1 h; RIPA lysis, streptavidin magnetic beads, LC-MS/MS, LFQ against cytosolic V5-TurboID; DMSO and TM groups merged
[1] = target: IRE1β-TurboID (human IRE1β with TurboID fused to its C-terminus) (human) (UniProt Q76MJ5)
[2] = target: IRE1α-TurboID (human IRE1α with TurboID fused to its C-terminus) (human) (UniProt O75460)
[3] = target: IRE1α-TurboID (human IRE1α with TurboID fused to its C-terminus) (human) (UniProt O75460); remark: listed apart in the source
[4] = target: IRE1β-TurboID (human IRE1β with TurboID fused to its C-terminus) (human) (UniProt Q76MJ5); remark: listed apart in the source

By UniProt entry, the sequences of proteins in these tests, tags left out. Residues count along the entry.
UniProt Q76MJ5, residues 35-926: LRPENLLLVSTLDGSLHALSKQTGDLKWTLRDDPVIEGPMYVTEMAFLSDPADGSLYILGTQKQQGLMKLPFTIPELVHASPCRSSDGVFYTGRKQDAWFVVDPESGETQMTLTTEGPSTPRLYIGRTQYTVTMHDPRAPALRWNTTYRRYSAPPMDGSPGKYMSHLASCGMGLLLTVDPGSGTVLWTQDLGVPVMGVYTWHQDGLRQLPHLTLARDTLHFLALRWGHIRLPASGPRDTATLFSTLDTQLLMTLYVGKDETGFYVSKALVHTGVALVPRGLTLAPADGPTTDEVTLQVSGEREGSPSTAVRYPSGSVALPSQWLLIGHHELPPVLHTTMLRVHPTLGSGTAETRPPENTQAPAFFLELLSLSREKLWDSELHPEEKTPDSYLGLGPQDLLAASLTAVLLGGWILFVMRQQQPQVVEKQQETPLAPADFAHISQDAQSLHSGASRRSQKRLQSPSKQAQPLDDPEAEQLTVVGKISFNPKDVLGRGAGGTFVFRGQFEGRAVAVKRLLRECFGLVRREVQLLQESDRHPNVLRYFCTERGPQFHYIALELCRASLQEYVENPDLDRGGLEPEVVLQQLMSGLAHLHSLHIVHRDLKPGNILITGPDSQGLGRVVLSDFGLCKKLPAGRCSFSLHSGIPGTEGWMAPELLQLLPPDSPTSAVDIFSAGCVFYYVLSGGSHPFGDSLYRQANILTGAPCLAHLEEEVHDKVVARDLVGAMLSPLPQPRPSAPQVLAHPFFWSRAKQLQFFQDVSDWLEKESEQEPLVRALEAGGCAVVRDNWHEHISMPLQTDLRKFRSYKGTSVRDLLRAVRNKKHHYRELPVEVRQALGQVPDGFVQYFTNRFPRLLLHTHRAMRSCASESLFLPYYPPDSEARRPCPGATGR
UniProt O75460, residues 19-977: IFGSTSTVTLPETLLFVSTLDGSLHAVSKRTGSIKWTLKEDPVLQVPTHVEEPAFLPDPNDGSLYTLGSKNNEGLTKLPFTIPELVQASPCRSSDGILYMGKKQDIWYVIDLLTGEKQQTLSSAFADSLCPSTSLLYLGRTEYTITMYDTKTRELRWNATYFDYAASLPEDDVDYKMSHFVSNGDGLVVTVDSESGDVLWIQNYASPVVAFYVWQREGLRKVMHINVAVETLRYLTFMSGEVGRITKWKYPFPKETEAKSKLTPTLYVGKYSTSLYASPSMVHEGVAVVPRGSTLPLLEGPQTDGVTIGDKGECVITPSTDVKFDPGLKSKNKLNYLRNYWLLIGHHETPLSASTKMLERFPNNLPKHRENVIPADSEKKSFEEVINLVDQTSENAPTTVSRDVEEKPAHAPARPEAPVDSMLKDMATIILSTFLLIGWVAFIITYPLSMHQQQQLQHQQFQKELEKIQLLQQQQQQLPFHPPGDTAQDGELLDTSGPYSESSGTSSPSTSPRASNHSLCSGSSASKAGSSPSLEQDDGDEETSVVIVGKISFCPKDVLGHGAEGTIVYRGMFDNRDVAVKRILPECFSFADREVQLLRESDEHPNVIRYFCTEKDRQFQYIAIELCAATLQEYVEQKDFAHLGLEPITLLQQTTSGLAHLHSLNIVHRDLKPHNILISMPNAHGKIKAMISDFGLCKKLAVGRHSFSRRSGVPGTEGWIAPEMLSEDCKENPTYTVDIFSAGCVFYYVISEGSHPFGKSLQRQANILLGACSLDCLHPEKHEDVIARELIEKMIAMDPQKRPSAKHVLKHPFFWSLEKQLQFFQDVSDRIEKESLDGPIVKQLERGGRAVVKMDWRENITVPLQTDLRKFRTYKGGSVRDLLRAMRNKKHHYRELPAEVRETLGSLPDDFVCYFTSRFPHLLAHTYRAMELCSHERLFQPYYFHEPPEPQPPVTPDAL
UniProt Q7KZF4: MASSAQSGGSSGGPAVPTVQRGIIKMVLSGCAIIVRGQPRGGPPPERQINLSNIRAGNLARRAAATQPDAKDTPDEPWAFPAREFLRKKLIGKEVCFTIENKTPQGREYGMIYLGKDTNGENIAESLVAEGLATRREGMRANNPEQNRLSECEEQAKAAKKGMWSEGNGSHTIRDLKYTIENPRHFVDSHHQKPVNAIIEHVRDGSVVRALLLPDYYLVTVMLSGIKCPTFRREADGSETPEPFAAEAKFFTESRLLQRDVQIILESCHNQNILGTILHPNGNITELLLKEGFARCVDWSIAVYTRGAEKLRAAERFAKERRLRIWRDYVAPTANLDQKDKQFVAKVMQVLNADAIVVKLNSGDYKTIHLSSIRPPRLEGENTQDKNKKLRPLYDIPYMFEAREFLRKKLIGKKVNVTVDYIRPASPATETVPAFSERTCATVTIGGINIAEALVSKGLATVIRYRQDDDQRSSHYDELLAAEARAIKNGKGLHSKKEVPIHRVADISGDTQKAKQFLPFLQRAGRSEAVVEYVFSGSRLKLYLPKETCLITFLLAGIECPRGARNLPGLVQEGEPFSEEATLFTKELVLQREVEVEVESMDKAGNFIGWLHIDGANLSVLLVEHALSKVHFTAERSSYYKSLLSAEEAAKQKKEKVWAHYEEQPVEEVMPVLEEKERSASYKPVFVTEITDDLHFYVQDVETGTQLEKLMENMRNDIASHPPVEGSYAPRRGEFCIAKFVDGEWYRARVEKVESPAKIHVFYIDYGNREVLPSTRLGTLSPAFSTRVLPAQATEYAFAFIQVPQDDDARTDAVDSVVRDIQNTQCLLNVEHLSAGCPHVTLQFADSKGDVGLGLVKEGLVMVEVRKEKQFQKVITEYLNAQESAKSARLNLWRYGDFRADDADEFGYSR
UniProt Q9UGP8: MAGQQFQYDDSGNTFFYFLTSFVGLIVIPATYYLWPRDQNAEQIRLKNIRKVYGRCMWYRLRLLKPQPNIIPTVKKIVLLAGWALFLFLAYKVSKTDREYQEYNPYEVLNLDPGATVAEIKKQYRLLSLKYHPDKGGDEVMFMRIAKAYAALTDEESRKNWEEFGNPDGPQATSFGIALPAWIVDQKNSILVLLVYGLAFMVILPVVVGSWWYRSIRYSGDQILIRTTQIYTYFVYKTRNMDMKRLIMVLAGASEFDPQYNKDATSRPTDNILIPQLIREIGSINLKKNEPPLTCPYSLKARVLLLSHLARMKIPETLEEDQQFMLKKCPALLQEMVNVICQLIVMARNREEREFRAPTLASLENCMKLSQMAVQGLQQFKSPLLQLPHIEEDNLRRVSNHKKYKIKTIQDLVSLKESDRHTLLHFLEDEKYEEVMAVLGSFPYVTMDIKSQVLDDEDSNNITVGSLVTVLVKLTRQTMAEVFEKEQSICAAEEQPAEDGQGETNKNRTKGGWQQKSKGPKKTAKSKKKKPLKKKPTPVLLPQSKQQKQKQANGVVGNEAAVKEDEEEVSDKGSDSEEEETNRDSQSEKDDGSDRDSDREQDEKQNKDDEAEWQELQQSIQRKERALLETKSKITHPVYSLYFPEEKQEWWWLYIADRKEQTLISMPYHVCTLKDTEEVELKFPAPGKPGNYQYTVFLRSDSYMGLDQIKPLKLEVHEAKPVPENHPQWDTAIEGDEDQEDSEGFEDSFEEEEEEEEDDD

## staphylococcal nuclease domain-containing 1 (SND1), endogenous (from UniProt Q7KZF4 1-910)
[1]
  binding: no binding
[2]
  binding: binds

## translocon complex member Sec63, endogenous (from UniProt Q9UGP8 1-760)
[2]
  binding: binds

## valosin-containing protein (VCP), endogenous (from UniProt P55072 1-806)
[1]
  binding: no binding
[2]
  binding: binds

B1: UBXN4, endogenous (protein, UniProt Q92575 1-508)
chain: MLWFQGAIPAAIATAKRSGAVFVVFVAGDDEQSTQMAASWEDDKVTEASSNSFVAIKIDTKSEACLQFSQIYPVVCVPSSFFIGDSGIPLEVIAGSVSADELVTRIHKVRQMHLLKSETSVANGSQSESSVSTPSASFEPNNTCENSQSRNAELCEIPPTSDTKSDTATGGESAGHATSSQEPSGCSDQRPAEDLNIRVERLTKKLEERREEKRKEEEQREIKKEIERRKTGKEMLDYKRKQEEELTKRMLEERNREKAEDRAARERIKQQIALDRAERAARFAKTKEEVEAAKAAALLAKQAEMEVKRESYARERSTVARIQFRLPDGSSFTNQFPSDAPLEEARQFAAQTVGNTYGNFSLATMFPRREFTKEDYKKKLLDLELAPSASVVLLPAGRPTASIVHSSSGDIWTLLGTVLYPFLAIWRLISNFLFSNPPPTQTSVRVTSSEPPNPASSSKSEKREPVRKRVLEKRGDDFKKEGKIYRLRTQDDGEDENNTWNGNSTQQM
[3]
  binding: binds

B2: metadherin (MTDH), endogenous (protein, UniProt Q86UE4 1-582)
chain: MAARSWQDELAQQAEEGSARLREMLSVGLGFLRTELGLDLGLEPKRYPGWVILVGTGALGLLLLFLLGYGWAAACAGARKKRRSPPRKREEAAAVPAAAPDDLALLKNLRSEEQKKKNRKKLSEKPKPNGRTVEVAEGEAVRTPQSVTAKQPPEIDKKNEKSKKNKKKSKSDAKAVQNSSRHDGKEVDEGAWETKISHREKRQQRKRDKVLTDSGSLDSTIPGIENTITVTTEQLTTASFPVGSKKNKGDSHLNVQVSNFKSGKGDSTLQVSSGLNENLTVNGGGWNEKSVKLSSQISAGEEKWNSVSPASAGKRKTEPSAWSQDTGDANTNGKDWGRSWSDRSIFSGIGSTAEPVSQSTTSDYQWDVSRNQPYIDDEWSGLNGLSSADPNSDWNAPAEEWGNWVDEERASLLKSQEPIPDDQKVSDDDKEKGEGALPTGKSKKKKKKKKKQGEDNSTAQDTEELEKEIREDLPVNTSKTRPKQEKAFSLKTISTSDPAEVLVKNSQPIKTLPPATSTEPSVILSKSDSDKSSSQVPPILQETDKSKSNTKQNSVPPSQTKSETSWESPKQIKKKKKARRET
[4]
  binding: no binding
[3]
  binding: binds

Source: article PMC11082977
